The values that follow come from patent publication US20180177742A1 (priority 2015, published 2018).

SMILES strings stand for the structures.

The data set is described as follows: clinical. To be noted: both, human, in vivo, iv, 0.7 mg/kg.

In the case of `CCN(CC)CC(=O)Nc1c(C)cccc1C` [lidocaine IV bolus, lidocaine], the AUC(0-inf) (as a rule, total exposure, with the tail of the curve extrapolated) worked out at 2000 ng·h/mL; the area under the curve AUC(0-t) (in general, the area under the concentration-time curve up to a stated or last time point) is 1980 ng·h/mL; the Cmax (as a rule, the peak of the concentration-time curve) is 1780 ng/mL; the Tmax (as a rule, the time at which the peak concentration occurs) worked out at 7.8 min.
